Results of single-concentration screens

By UniProt entry, the sequences of proteins in these tests, tags left out.
UniProt I6X8D2, whole entry: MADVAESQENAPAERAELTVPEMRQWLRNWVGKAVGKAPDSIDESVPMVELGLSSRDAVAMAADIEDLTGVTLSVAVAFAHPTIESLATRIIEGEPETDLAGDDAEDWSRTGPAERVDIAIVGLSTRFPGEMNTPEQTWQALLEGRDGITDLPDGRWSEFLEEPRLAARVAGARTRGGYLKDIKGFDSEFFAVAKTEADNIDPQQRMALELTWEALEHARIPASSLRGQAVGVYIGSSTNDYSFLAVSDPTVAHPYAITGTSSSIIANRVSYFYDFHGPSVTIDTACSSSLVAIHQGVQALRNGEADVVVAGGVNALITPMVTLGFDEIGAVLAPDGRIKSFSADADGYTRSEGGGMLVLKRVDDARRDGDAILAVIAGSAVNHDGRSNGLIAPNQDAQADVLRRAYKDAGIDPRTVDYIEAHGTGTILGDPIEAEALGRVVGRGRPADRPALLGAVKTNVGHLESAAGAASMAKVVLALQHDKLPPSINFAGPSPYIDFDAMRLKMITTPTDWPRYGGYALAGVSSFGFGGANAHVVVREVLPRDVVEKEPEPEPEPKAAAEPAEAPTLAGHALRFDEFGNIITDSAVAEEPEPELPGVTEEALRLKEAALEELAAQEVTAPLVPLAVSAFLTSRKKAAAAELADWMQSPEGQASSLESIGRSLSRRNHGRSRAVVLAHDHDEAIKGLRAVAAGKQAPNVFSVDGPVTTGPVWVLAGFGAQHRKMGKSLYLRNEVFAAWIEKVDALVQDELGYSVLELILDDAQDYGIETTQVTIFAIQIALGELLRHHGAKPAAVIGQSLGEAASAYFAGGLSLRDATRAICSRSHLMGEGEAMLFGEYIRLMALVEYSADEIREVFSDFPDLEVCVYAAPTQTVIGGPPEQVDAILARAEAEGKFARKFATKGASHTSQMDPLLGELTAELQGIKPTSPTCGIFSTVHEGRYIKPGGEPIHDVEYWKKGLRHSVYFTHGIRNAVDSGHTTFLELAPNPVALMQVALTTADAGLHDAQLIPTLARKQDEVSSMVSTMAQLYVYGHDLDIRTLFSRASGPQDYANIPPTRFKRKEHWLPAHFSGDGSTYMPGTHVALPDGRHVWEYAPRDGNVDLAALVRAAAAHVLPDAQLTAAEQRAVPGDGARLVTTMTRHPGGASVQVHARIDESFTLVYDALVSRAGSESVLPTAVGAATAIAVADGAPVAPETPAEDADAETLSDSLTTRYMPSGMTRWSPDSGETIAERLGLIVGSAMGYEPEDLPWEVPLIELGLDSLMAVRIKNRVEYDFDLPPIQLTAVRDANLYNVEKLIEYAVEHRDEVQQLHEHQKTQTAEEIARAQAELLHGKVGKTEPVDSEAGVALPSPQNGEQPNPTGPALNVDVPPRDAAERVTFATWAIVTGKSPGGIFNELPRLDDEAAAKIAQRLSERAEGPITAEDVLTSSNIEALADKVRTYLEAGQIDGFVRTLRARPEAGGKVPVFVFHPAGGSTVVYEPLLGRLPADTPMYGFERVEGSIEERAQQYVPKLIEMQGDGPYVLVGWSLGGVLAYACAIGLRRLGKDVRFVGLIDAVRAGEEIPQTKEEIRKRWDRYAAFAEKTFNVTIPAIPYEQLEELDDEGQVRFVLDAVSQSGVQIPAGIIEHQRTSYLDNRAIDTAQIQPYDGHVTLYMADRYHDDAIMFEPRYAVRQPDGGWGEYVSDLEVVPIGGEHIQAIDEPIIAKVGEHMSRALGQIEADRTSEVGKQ

Source: ChEMBL document CHEMBL3988442, “University of Dundee, Small-Polar-MMV Screening Library” (2021).

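Polyketide synthase Pks13, Mycobacterium tuberculosis (UniProt I6X8D2). Enzyme assay of the thioesterase domain of polyketide synthase 13; the read-out is not stated. Compounds at 30 µM. Higher reads as stronger inhibition (inferred from which compounds were picked for retests). Of about 67,000 compounds tested this way, about 300 (0.46%) reached 50% or more in at least one test.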

Values are the deposited “Percent Effect”, in %.
How 0% and 100% were set is not recorded. Most values in the screen are low, and negative values occur.
The compounds are a random part of those screened.

| structure | Percent Effect |
|---|---|
| `COc1cccc2c1OCC(CNC(=O)CSc1nc(N)n[nH]1)C2` (stereo not drawn) | -28.81 |
| `Cc1ccc(O)c(C(=O)N2CCC(CNC(=O)OC(C)(C)C)C2)c1` (stereo not drawn) | -14.46 |
| `CN(Cc1ccc2c(c1)OCO2)Cc1nc(-c2ccco2)no1` | -4.355 |
| `Cc1nccn1-c1ccc(NC(=O)C2CCCN2CC2CC2)cc1` (stereo not drawn) | -33.07 |
| `COc1ccc(C(C)C)cc1C1CC(=O)NCc2nc(N(C)C)sc21` (stereo not drawn) | -10.53 |
| `CC(C)[C@@H]1CN(C(=O)NCCc2ccccc2)C[C@H]1NS(=O)(=O)N(C)C` | -14.78 |
| `CC(O)CN1CCN(Cc2cccc(C#N)c2)CC1` (stereo not drawn) | -17.83 |
| `Cc1nc(N2CCCCC2)ncc1-c1cc(O)nc(N2CCCCC2)n1` | 8.88 |
| `CN(C)c1ncc(NS(=O)(=O)c2ccc(OC(F)(F)F)cc2)cn1` | -2.361 |
| `COc1nc2ccn(CCc3cc(O)nc(C)n3)c(=O)c2cc1C#N` | -87.47 |
| `O=C(c1cccc(C2CCNC2)c1)N1CCC(N2CCC(O)CC2)CC1` (stereo not drawn) | 5.108 |
| `CC(=O)N1N=C(c2ccco2)OC1C(=O)NCCc1ccc(F)cc1` (stereo not drawn) | -11.41 |
| `CCc1nc(C2CCCN2CC(=O)NCCOc2ccccc2)no1` (stereo not drawn) | -31.88 |
| `CS(=O)(=O)N1CCC(c2nnc(Cn3ccnc3)n2C2CC2)CC1` | -31.78 |
| `O=C1CCCN1Cc1ncn2c1CN(C(=O)N1CCCC1)CCC2` | -18.27 |
| `Cc1ccccc1C1(C(=O)NCCN2CCCC(C)C2)CCOCC1` (stereo not drawn) | -41.09 |
| `CNc1cncc(C2CCCN2C(=O)CCn2ccnc2C(C)C)n1` (stereo not drawn) | 15.84 |
| `COc1ccc(CN2C[C@H]3CN(C(=O)c4ccno4)CCN3C2=O)cc1` | -34.65 |
| `CCCS(=O)(=O)N1CCC2(CC1)CC(=O)N(Cc1cc(F)cc(F)c1)C2` | 1.506 |
| `Cc1cnn(CCNCc2ccc(S(C)(=O)=O)cc2)c1` | -5.893 |
| `Cc1ccc(CNC(=O)C2c3c(ncn3C(C)C)CCN2S(C)(=O)=O)o1` (stereo not drawn) | -25 |
| `O=C(CCc1cccs1)N1CCCCC1Cn1cccn1` (stereo not drawn) | -33.08 |
| `CC(C)NC1CCc2c(ccc(=O)n2CCN(C)C)C1` (stereo not drawn) | 3.613 |
| `COC(=O)CC(c1ccc(OC)c(O)c1)c1oc(C)cc(=O)c1O` (stereo not drawn) | -20.22 |
| `CS(=O)(=O)N1CCCC(Cc2cnc(Br)cn2)CC1` (stereo not drawn) | -21.67 |
| `CSc1nnc(C2CCN(C(=O)N3CCCC3)CC2)n1C` | 6.741 |
| `CC(C(=O)NCc1cccc(N2CCCC2=O)c1)S(C)(=O)=O` (stereo not drawn) | -3.94 |
| `CS(=O)(=O)N1CCCC12CCCN(S(=O)(=O)c1ccc(F)c(F)c1)C2` (stereo not drawn) | -16.06 |
| `Cn1cnnc1-c1cncc(NCc2cccc3c2OC(C)(C)C3)c1` | 10.19 |
| `CCOC(=O)CCCNC(=O)CN1CCN(c2ncccn2)CC1` | -5.775 |
| `COCCC(=O)N1C[C@@H](O)[C@H](N2CCN(c3ccccc3)CC2)C1` | -12.79 |
| `O=C(c1cnn[nH]1)N(Cc1ccncc1)CC1CCCO1` (stereo not drawn) | -96.7 |
| `FC(F)(F)Cc1noc(CN2CCCC2c2noc(C3CC3)n2)n1` (stereo not drawn) | 7.917 |
| `CN(C)c1cc(C2CCCN2C(=O)c2noc3c2CCCC3)ccn1` (stereo not drawn) | 3.613 |
| `CC[C@H](C)Nc1nccc(-c2cnc3sc(C)c(C)n3c2=O)n1` | -16.35 |
| `CN(Cc1ccc2c(c1)OCCO2)Cn1nc(C(C)(C)C)ccc1=O` | -11.57 |
| `Cc1ccccc1-n1ccnc1S(=O)(=O)Cc1nsc(N(C)C)n1` | 7.602 |
| `COc1ccc(CC(=O)N2CCC(Nc3ccc(C)nn3)CC2)cc1` | -9.924 |
| `CCS(=O)(=O)N1CCC2(CC(=O)N(c3ccccc3C)C2)C1` (stereo not drawn) | -17.82 |
| `Cc1cc(CN2CCN(C(=O)NCCc3csc(C)n3)CC2)on1` | -2.109 |
| `Cc1ccc(N2CC[C@H]3O[C@@H](C(=O)N4CCCCO4)CC[C@H]32)nn1` | 14.56 |
| `N#Cc1ccc(OCC(O)CN2CCN(c3nccs3)CC2)cc1` (stereo not drawn) | -2.566 |
| `O=C(CCC(=O)N1CCC(c2noc3cc(F)ccc23)CC1)NC1CC1` | 0.03257 |
| `CC(NC(=O)N1CCN(CCc2ccccc2)CC1)c1nncn1C` (stereo not drawn) | -13.95 |
| `Cc1ccc(NC(=O)N(C)CC(O)COCCOC(C)C)c(Br)c1` (stereo not drawn) | -38.2 |
| `CC(C)CC(=O)N1CC[C@H]2C[C@H](c3nccs3)O[C@@H]2C1` | 3.487 |
| `CN1CCC(Cc2noc(CC3CC3)n2)CC1` | -33.78 |
| `COCCC1COC2(CCN(C(=O)c3ccsc3)CC2)C1` (stereo not drawn) | -3.637 |
| `O=C(NCc1cccs1)c1nc2c(o1)CN(CC1CC1)C2` | -29.11 |
| `O=C1CCC(C(=O)Nc2cnn(-c3ccccc3Cl)c2)N1` (stereo not drawn) | -4.93 |
| `c1cnn(CC2CN(Cc3nc(-c4ccoc4)no3)CCO2)c1` (stereo not drawn) | -11.12 |
| `O=c1ncn(-c2ccc(F)cc2)c2ncccc12` | 7.544 |
| `O=C1CCCN1C(CNS(=O)(=O)C1CC1)Cc1cccc(F)c1` (stereo not drawn) | 0.7536 |
| `NC(=O)NCC1CCCCN1C(=O)c1ccc(Br)s1` (stereo not drawn) | -22.48 |
| `CC(C(=O)N1CCN(Cc2ccc3c(c2)OCO3)CC1)n1ccnc1` (stereo not drawn) | -12.72 |
| `CN(C)CCN1CCN(Cc2nccs2)Cc2cccnc21` | -10.67 |
| `CN(C)CCN1CCCC12CCN(Cc1nccn1C)CC2` | -8.217 |
| `CC(NCc1ccc(OCC(N)=O)cc1)c1ccc(Cl)cc1Cl` (stereo not drawn) | 10.84 |
| `CC(C)Cc1cc(CNC(=O)c2cccc3c2OCC3)no1` | -10.01 |
| `CSCCC(=O)N1C[C@H](Nc2ccnc(C)n2)[C@@H](C(C)C)C1` | 14.99 |
| `COc1ccccc1-n1c(CC(C)C)nnc1SCC(=O)O` | -30.42 |
| `Cc1ncsc1CN1C[C@@H](O)[C@](O)(CNC(=O)c2ccccn2)C1` | -30.78 |
| `Cc1noc(C)c1CNCc1nn(-c2ccccc2)c2c1CCC2` | -16.54 |
| `Cc1c(CN2CCCC2(C)C(=O)N2CCOCC2)cnn1C` (stereo not drawn) | -4.953 |
| `O=C(CCOCc1ccccc1)N1CCCC1c1noc(C2CC2)n1` (stereo not drawn) | -5.756 |
| `CC(C)N1CCC(CC(=O)NCCc2cc(O)ncn2)CC1` | 10.77 |
| `CCn1cc(CN2CCCN(C(=O)Cc3ccc(C)nc3)CC2)cn1` | -27.74 |
| `O=S1(=O)CCC(c2nnc(-c3cnc4onc(C5CC5)c4c3)o2)C1` (stereo not drawn) | 3.531 |
| `CN1CCC(N2CC[C@H](c3nc4ccc(C(F)(F)F)cc4[nH]3)C2)CC1` | -35.8 |
| `Cn1cc(CN2CCCC3(COCCN(c4cccnc4)C3)C2)cn1` (stereo not drawn) | -4.501 |
| `Cc1cccc(N2CC3(CCN(S(=O)(=O)c4cccs4)C3)CC2=O)c1` (stereo not drawn) | -25.14 |
| `Cc1occc1C(=O)N1CCCC2(CCN(c3ccsc3)C2=O)C1` (stereo not drawn) | 0.4447 |
| `Cc1oc(-c2cccc(F)c2F)nc1CN(C)CCO` | -8.52 |
| `COc1ccc(C(C)Nc2nc3c(C)nn(C)c3c(=O)n2C)cc1` (stereo not drawn) | -1.332 |

Some entries from above, unchanged:

structure,Percent Effect
CCn1cc(CN2CCCN(C(=O)Cc3ccc(C)nc3)CC2)cn1,-27.74
CC(C)NC1CCc2c(ccc(=O)n2CCN(C)C)C1 (stereo not drawn),3.613
CC(C)CC(=O)N1CC[C@H]2C[C@H](c3nccs3)O[C@@H]2C1,3.487
COc1ccc(CC(=O)N2CCC(Nc3ccc(C)nn3)CC2)cc1,-9.924
CN(C)c1cc(C2CCCN2C(=O)c2noc3c2CCCC3)ccn1 (stereo not drawn),3.613
O=S1(=O)CCC(c2nnc(-c3cnc4onc(C5CC5)c4c3)o2)C1 (stereo not drawn),3.531
CN1CCC(N2CC[C@H](c3nc4ccc(C(F)(F)F)cc4[nH]3)C2)CC1,-35.8
CCCS(=O)(=O)N1CCC2(CC1)CC(=O)N(Cc1cc(F)cc(F)c1)C2,1.506
Cc1nc(N2CCCCC2)ncc1-c1cc(O)nc(N2CCCCC2)n1,8.88
O=C(CCc1cccs1)N1CCCCC1Cn1cccn1 (stereo not drawn),-33.08